Reference: PubChem BioAssay AID504764 (Drosophila RNAi Screening Center, 2011)

Aim: 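Genes whose knock-down alters Notch-dependent transcription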 (primary screen)
Cells: Drosophila Kc167 cells
Reagent: long dsRNA against Drosophila genes
Time to read-out: about 5 days (4 days dsRNA, then 24 h after transfection)
Conditions: transfection of constitutively active membrane-tethered Notch lacking the extracellular domain, read 24 h later
Read-out: 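Firefly luciferase from an E(spl)m3 reporter with active Notch, plus control-promoter and uninduced reporter wells for normalisation; unnormalised counts, duplicate wells a and b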
Direction: induced reporter light, run 1, well a and induced reporter light, run 1, well b: higher = more light from the Notch target reporter with active Notch; control promoter light, run 1, well a and control promoter light, run 1, well b: higher = more light from the viral control promoter (cell number, transfection, viability); uninduced reporter light, run 1, well a: higher = more light from the Notch target reporter without active Notch
Rule for the call: 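Hit if the duplicate-averaged log2 ratio of induced to control-promoter light gives a plate-wise z beyond ±2, or induced to uninduced beyond ±1.8; weak-control or discordant-duplicate wells dropped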
Meaning of the calls: active = modifier hit (raised or lowered Notch signal); inactive = not a hit
In all, the deposit lists about 22,000 reagents; below is an unselected part of those with a known target gene and a result. In the full data, 403 (1.9%) are marked active. 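Unnormalised raw counts per well; ratio z-scores behind the hit calls and whether each hit raises or lowers signal are not deposited.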 Names joined by + are all predicted targets of the reagent. Not given: the amount of reagent.

The first 3 records as a preview:
target | amplicon | induced reporter light, run 1, well a | induced reporter light, run 1, well b | control promoter light, run 1, well a | control promoter light, run 1, well b | uninduced reporter light, run 1, well a | Outcome
CG8476 (GeneID 41624) | DRSC16426 | 2.54e5 | 2.29e5 | 2.43e5 | 1.98e5 | 16638 | inactive
CG13970 (GeneID 2768911) | DRSC02311 | 43590 | 30270 | 39625 | 40310 | 2935 | inactive
CG3927 (GeneID 37576) | DRSC04433 | 1.59e5 | 1.47e5 | 1.44e5 | 1.15e5 | 12120 | inactive

The list itself, from the start:
target | amplicon | induced reporter light, run 1, well a | induced reporter light, run 1, well b | control promoter light, run 1, well a | control promoter light, run 1, well b | uninduced reporter light, run 1, well a | Outcome
CG8476 (GeneID 41624) | DRSC16426 | 2.54e5 | 2.29e5 | 2.43e5 | 1.98e5 | 16638 | inactive
CG13970 (GeneID 2768911) | DRSC02311 | 43590 | 30270 | 39625 | 40310 | 2935 | inactive
CG3927 (GeneID 37576) | DRSC04433 | 1.59e5 | 1.47e5 | 1.44e5 | 1.15e5 | 12120 | inactive
PIG-T (GeneID 31772) | DRSC17774 | 1.71e5 | 1.69e5 | 2.56e5 | 3.10e5 | 14245 | inactive
CG12590 (GeneID 40618) | DRSC12216 | 1.11e5 | 1.43e5 | 1.47e5 | 1.48e5 | 9810 | inactive
Ost48 (GeneID 31849) | DRSC18693 | 2.36e5 | 2.19e5 | 2.51e5 | 2.42e5 | 16390 | inactive
corto (GeneID 40616) | DRSC12375 | 94305 | 1.05e5 | 1.03e5 | 95595 | 8065 | inactive
dgt3 (GeneID 37377) | DRSC04349 | 76210 | 82215 | 61180 | 67595 | 6715 | inactive
Trx2 (GeneID 34281) | DRSC03622 | 1.38e5 | 1.57e5 | 81560 | 96725 | 19755 | inactive
Ae2 (GeneID 39147) | DRSC08997 | 1.51e5 | 1.41e5 | 2.40e5 | 2.28e5 | 11500 | inactive
Ae2 (GeneID 39147) | DRSC10969 | 1.35e5 | 1.22e5 | 94310 | 86490 | 13280 | inactive
RpS24 (GeneID 37589) | DRSC04414 | 79875 | 95415 | 97795 | 94305 | 5930 | inactive
Idgf6 (GeneID 36868) | DRSC07360 | 99210 | 95050 | 1.77e5 | 2.00e5 | 7295 | inactive
CG15812 (GeneID 38379) | DRSC08479 | 1.46e5 | 1.43e5 | 2.47e5 | 2.51e5 | 10230 | inactive
CG3842 (GeneID 31576) | DRSC18326 | 1.64e5 | 1.48e5 | 3.12e5 | 2.26e5 | 11730 | inactive
O-fut1 (GeneID 36564) | DRSC06138 | 1.51e5 | 1.80e5 | 1.68e5 | 1.72e5 | 14785 | inactive
HPS1 (GeneID 36656) | DRSC06195 | 1.71e5 | 1.86e5 | 2.37e5 | 1.94e5 | 16592 | inactive
CG3163 (GeneID 37836) | DRSC04341 | 1.89e5 | 1.77e5 | 1.81e5 | 1.97e5 | 13640 | inactive
prd1 (GeneID 41425) | DRSC15227 | 8942 | 7270 | 12105 | 9855 | 810 | inactive
Src42A (GeneID 35524) | DRSC04915 | 1.64e5 | 1.67e5 | 1.40e5 | 1.30e5 | 12895 | inactive
sncRNA:430e + His2A:CG33859 + His2A:CG33817 + 37 more | DRSC21264 | 92665 | 1.08e5 | 1.03e5 | 1.16e5 | 9345 | inactive
CG5388 (GeneID 42612) | DRSC15789 | 1.58e5 | 1.33e5 | 1.64e5 | 1.60e5 | 11660 | inactive
Hsc70-1 (GeneID 39542) | DRSC11185 | 1.02e5 | 98565 | 1.48e5 | 1.21e5 | 11160 | inactive
hiro (GeneID 38083) | DRSC08564 | 1.06e5 | 87345 | 1.67e5 | 1.97e5 | 7800 | inactive
Rsph3 (GeneID 38751) | DRSC09696 | 93385 | 1.11e5 | 72575 | 39925 | 10815 | inactive
Rsph3 (GeneID 38751) | DRSC10211 | 2.70e5 | 2.89e5 | 3.15e5 | 3.20e5 | 20500 | inactive
eIF2D (GeneID 64874) | DRSC13916 | 2.23e5 | 2.14e5 | 2.25e5 | 2.22e5 | 15310 | inactive
CG5543 (GeneID 37768) | DRSC04511 | 2.29e5 | 2.03e5 | 1.59e5 | 1.63e5 | 15720 | inactive
CG4666 (GeneID 31541) | DRSC18379 | 1.28e5 | 1.40e5 | 2.26e5 | 2.82e5 | 9700 | inactive
CG8560 (GeneID 38830) | DRSC10994 | 1.25e5 | 1.33e5 | 61395 | 30050 | 9765 | inactive
CG8329 (GeneID 39123) | DRSC10978 | 1.16e5 | 1.09e5 | 79080 | 47400 | 11690 | inactive
CG3119 (GeneID 33479) | DRSC00569 | 1.13e5 | 1.30e5 | 1.31e5 | 97280 | 11480 | inactive
Orcokinin (GeneID 37806) | DRSC04202 | 1.55e5 | 1.46e5 | 1.42e5 | 1.33e5 | 11005 | inactive
CDase (GeneID 43618) | DRSC14932 | 54995 | 53720 | 63375 | 66130 | 3785 | inactive
Mgat2 (GeneID 43563) | DRSC16347 | 1.56e5 | 1.74e5 | 1.93e5 | 1.96e5 | 10550 | inactive
TwdlH (GeneID 43208) | DRSC14735 | 1.37e5 | 1.35e5 | 2.01e5 | 1.81e5 | 14060 | inactive
CG3021 (GeneID 53546) | DRSC18165 | 98560 | 93420 | 1.66e5 | 1.56e5 | 7360 | inactive
CG3021 (GeneID 53546) | DRSC18652 | 1.25e5 | 1.14e5 | 2.49e5 | 2.30e5 | 9235 | inactive
Sec22 (GeneID 31030) | DRSC18538 | 1.79e5 | 1.84e5 | 2.20e5 | 1.99e5 | 16392 | inactive
RpS9 (GeneID 39108) | DRSC11273 | 47895 | 45825 | 43080 | 33430 | 3130 | active
CG14424 (GeneID 31279) | DRSC18472 | 1.20e5 | 1.21e5 | 1.39e5 | 1.81e5 | 7288 | inactive
bru3 (GeneID 39527) | DRSC09280 | 1.74e5 | 1.85e5 | 2.75e5 | 2.84e5 | 17392 | inactive
bru3 (GeneID 39527) | DRSC09687 | 1.52e5 | 1.70e5 | 1.10e5 | 1.34e5 | 13680 | inactive
bru3 (GeneID 39527) | DRSC09887 | 64030 | 49745 | 83180 | 69950 | 5000 | inactive
CG31268 (GeneID 318652) | DRSC13203 | 1.20e5 | 1.30e5 | 1.78e5 | 1.85e5 | 9100 | inactive
CG34297 (GeneID 5740802) | DRSC12410 | 1.90e5 | 1.26e5 | 1.42e5 | 1.19e5 | 15140 | inactive
CG34248 (GeneID 5740883) | DRSC09426 | 1.89e5 | 1.69e5 | 2.63e5 | 3.04e5 | 20395 | inactive
CG18787 + CG18789 | DRSC02698 | 56870 | 54200 | 35930 | 32955 | 10578 | inactive
CG4793 (GeneID 34941) | DRSC01966 | 1.05e5 | 1.34e5 | 1.31e5 | 1.44e5 | 9490 | inactive
Cpr65Ax2 + Cpr65Ax1 | DRSC10341 | 1.46e5 | 1.37e5 | 1.81e5 | 1.56e5 | 10835 | inactive
Cpr65Ax2 + Cpr65Ax1 | DRSC10344 | 2.11e5 | 2.29e5 | 2.10e5 | 1.96e5 | 11010 | inactive
l(2)k01209 (GeneID 36953) | DRSC06889 | 1.08e5 | 85925 | 1.04e5 | 1.09e5 | 10375 | inactive
pio (GeneID 37929) | DRSC04386 | 1.02e5 | 94890 | 61330 | 81140 | 5420 | inactive
CG15543 (GeneID 43647) | DRSC15081 | 1.36e5 | 1.01e5 | 1.98e5 | 1.54e5 | 12330 | inactive
CG15357 (GeneID 50192) | DRSC00387 | 1.10e5 | 1.07e5 | 96520 | 53505 | 7520 | inactive
mRpL51 (GeneID 34186) | DRSC02200 | 1.76e5 | 2.16e5 | 2.12e5 | 2.02e5 | 13745 | inactive
didum (GeneID 35680) | DRSC07603 | 2.17e5 | 2.19e5 | 2.66e5 | 2.43e5 | 17670 | inactive
Pdp (GeneID 31683) | DRSC17825 | 1.91e5 | 1.38e5 | 2.40e5 | 2.22e5 | 12380 | inactive
CG18622 (GeneID 42044) | DRSC15360 | 2.95e5 | 3.23e5 | 3.06e5 | 2.83e5 | 23400 | inactive
snoRNA:Me28S-C3227a + snoRNA:Me18S-A1061 + snoRNA:Me28S-C3227b + 7 more | DRSC05497 | 1.28e5 | 1.82e5 | 2.70e5 | 2.50e5 | 15832 | inactive
CG4991 (GeneID 32695) | DRSC19928 | 1.16e5 | 1.36e5 | 98625 | 40130 | 10020 | inactive
Elk (GeneID 37047) | DRSC07608 | 97790 | 88280 | 1.56e5 | 1.55e5 | 8860 | inactive
Nha1 (GeneID 33961) | DRSC02109 | 1.64e5 | 1.80e5 | 1.97e5 | 2.06e5 | 15435 | inactive
PolQ (GeneID 41571) | DRSC17006 | 71720 | 67870 | 45995 | 48875 | 5630 | inactive
